Test results published in paper doi:10.1101/2025.05.20.655051.
Results are given in words; binding and its absence hold for the method and conditions named. In cells and extracts the contact can be indirect. Here binding means that the protein was enriched with, or labelled near, the bait; the list need not be complete. Tags and fused reporters may be left off the sequences shown.

Biological target: T1, VIPP1-GFP (Vesicle Inducing Protein in Plastids 1 tagged by GFP at its C-terminus) (Arabidopsis thaliana) (UniProt O80796)
T1 sequence: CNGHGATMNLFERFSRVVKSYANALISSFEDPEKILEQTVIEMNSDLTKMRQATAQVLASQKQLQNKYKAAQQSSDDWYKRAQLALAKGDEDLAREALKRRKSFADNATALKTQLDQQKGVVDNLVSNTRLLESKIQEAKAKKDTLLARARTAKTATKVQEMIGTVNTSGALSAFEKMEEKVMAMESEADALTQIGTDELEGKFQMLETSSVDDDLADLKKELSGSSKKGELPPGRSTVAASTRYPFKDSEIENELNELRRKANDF
Experiment: affinity purification with mass spectrometry

binding: binds
Substance: PPR protein (At1g64430)
